Values of other authors, collected in patent US6830603B2, “Volatility-inhibited urea fertilizers” (Whitehurst Associates, Inc., priority 2002, dated 2004).
For at least one compound, name, drawing or mass did not settle the structure.

Test system: soil urease
Settings: all soils except one (Waller soil); rate of 5 mole per gram soil

SMILES: O=BOB(O)OB(O)OB=O [sodium tetraborate]
- inhibition of soil urease: less than 30%
